This is one part of the list.

Amino acid sequences for entries named in this document (tags omitted).
UniProt Q0JBA9, entry or part of it: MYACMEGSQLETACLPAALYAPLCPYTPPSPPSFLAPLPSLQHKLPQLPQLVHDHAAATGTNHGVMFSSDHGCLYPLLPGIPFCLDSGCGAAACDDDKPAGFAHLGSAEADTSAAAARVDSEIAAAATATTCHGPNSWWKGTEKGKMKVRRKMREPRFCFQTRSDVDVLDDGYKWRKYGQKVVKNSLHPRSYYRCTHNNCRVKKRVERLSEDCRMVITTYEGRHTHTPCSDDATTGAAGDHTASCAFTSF

This test has as its target OsWRKY34 (Oryza sativa, UniProt Q0JBA9 1-250). Nature of the test: protein-binding microarray (RPBM); PBS, 2% BSA, 51.3 ng/ul salmon testes DNA, 50 uM zinc acetate, 200 nM TF, 25 C, 1 h; high values mean tight binding. The following applies: protein: recombinant; tags: N-terminal polyhistidine and DsRed monomer fusion (pET32a); label: CyDye5-dUTP incorporated in the synthesized complementary strand; 3' TTTTT single-stranded linker to array surface; dsDNA, one strand shown. The method in brief: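 Per-feature fluorescence intensity (arbitrary units), read on an Axon 4000B scanner, is the binding signal. Transcription factors carrying an N-terminal polyhistidine tag and DsRed fusion were expressed in E. coli BL21-CodonPlus and purified on Ni–NTA. A custom Agilent array, made double-stranded by primer extension with Cy5-dUTP and blocked with 2% BSA, was incubated with 200 nM protein in PBS, 2% BSA, salmon testes DNA and 50 µM zinc acetate at 25 °C for 1 h and then washed.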
For “TACGTCTCCTCCGATACATCGCGCTTTCCTGCTCCCTTTTCGGAGTCACCTAGTGCAG”, the binding signal was 11100 fluorescence intensity (a.u.). The figure for “GCGTCCACTTGCACGGTTTTTTACTGTTATTTCTTTTCGTCGGAGTCACCTAGTGCAG” is 8320 fluorescence intensity (a.u.); for “TTTACCGGCCTTATTGGTCTTTTTTTTATTATTTCTTTTACGGAGTCACCTAGTGCAG” it is 10800 fluorescence intensity (a.u.).

As for “GTGCTCGGCTCCTCTCTCAGTAGCTTGTATGTGTCAGTTGCGGAGTCACCTAGTGCAG”, the binding signal is 10500 fluorescence intensity (a.u.). As for “GTCGGCTCCACTCCCGCCTCGCCATCGCCGCCCTGAAGCCCGGAGTCACCTAGTGCAG”, the figure is 9340 fluorescence intensity (a.u.). As to “TATTTCTATATGGACTTTGTTTTTTCTTTTTCTTCTTTTTCGGAGTCACCTAGTGCAG”, the binding signal is 13100 fluorescence intensity (a.u.). The figure for “GATTGATGTGGAAGAGTAGTTATTAGGAGGGAGGAAGCAACGGAGTCACCTAGTGCAG” is 9030 fluorescence intensity (a.u.).

Consider “TATCCCTTTGTTTTCTTACATATTATATTCTTTTCGCGTTCGGAGTCACCTAGTGCAG”, for which the binding signal was 12700 fluorescence intensity (a.u.).

Consider “CCCCTGCCTGCTTTGCCCGCTGGCCTCTCAGTCTTGGTGACGGAGTCACCTAGTGCAG”, for which the binding signal was 8290 fluorescence intensity (a.u.). As for “TTTTTCCCTTCTTTTTCTCCGCCGTAGTGTACTCCTCCTACGGAGTCACCTAGTGCAG”, the figure is 8590 fluorescence intensity (a.u.); as for “CCGACGCCGGCCCACCGCCCTCCTCCATCTCCGCGGCTCCCGGAGTCACCTAGTGCAG”, 8070 fluorescence intensity (a.u.); as for “ACAAAACAACAACCCACCGTAAGACGCTCCGTGCCCAAACCGGAGTCACCTAGTGCAG”, 8180 fluorescence intensity (a.u.). As to “AATGTTGGTCCTACCTTTTCCTATCCAACCTTTACGAACTCGGAGTCACCTAGTGCAG”, the binding signal was 9860 fluorescence intensity (a.u.). The figure for “GAGGGAGTATGGAATAGTAGTGTTTGCATTGGAAGAGTAGCGGAGTCACCTAGTGCAG” is 8070 fluorescence intensity (a.u.). As for “GTGGGATGACGGGACGTGGGCTGGGGTTGGCCTGGGCTGACGGAGTCACCTAGTGCAG”, the figure is 9770 fluorescence intensity (a.u.); as for “TTCCATGTATTTATGTATTTTTGTACCTTTATAAATTATCCGGAGTCACCTAGTGCAG”, 8310 fluorescence intensity (a.u.); as for “AGCTTTCGGGTTAATTTGGTTATTACATAGGAGTATATTTCGGAGTCACCTAGTGCAG”, 9520 fluorescence intensity (a.u.).

In the case of “TTCGTGTGAAATTTCTCAAACTTTGTTTTTTGTTGTACGTCGGAGTCACCTAGTGCAG”, the binding signal was 11700 fluorescence intensity (a.u.). The figure for “CTAGGTGTTTTTTTTTCTTCCTTCTTTTCGTTTTTCCTCGCGGAGTCACCTAGTGCAG” is 14300 fluorescence intensity (a.u.); for “GTGCGTATCCCCGCGAAACGCCTCGTCGCGTTCATATTTGCGGAGTCACCTAGTGCAG” it is 8930 fluorescence intensity (a.u.); for “TCTTTGTACTCTGTGGTTTTCCATATCAATATCATATAAACGGAGTCACCTAGTGCAG” it is 8060 fluorescence intensity (a.u.).

For “TTATGGTGTTCTTTATATATCATGTTTTGGATACACTCCACGGAGTCACCTAGTGCAG”, the binding signal was 8900 fluorescence intensity (a.u.). The figure for “GTTATTGTTGACCTTTTCTTTTGTTTTCGGTGTTTTATGTCGGAGTCACCTAGTGCAG” is 9830 fluorescence intensity (a.u.); for “GTATAACGCCGTTGACTTTTTAACCAATGTTTGACCATTCCGGAGTCACCTAGTGCAG” it is 40400 fluorescence intensity (a.u.).

Take “CCTTTTTCACTTTTTTTCTCCTTTTTGTAAATGACACTTTCGGAGTCACCTAGTGCAG”: the binding signal was 8150 fluorescence intensity (a.u.). The figure for “TGTACTTCTCACCTCCTAATTAACCCTGCACCACCGTAATCGGAGTCACCTAGTGCAG” is 9540 fluorescence intensity (a.u.); for “TGGCTTACTGGCTCAATGCCTTTGTCTTACCGCACATCCACGGAGTCACCTAGTGCAG” it is 8790 fluorescence intensity (a.u.). For the sequence “TCTGTCGTTTCTCTCACTAGTCATTACAAGCTCCAATTAACGGAGTCACCTAGTGCAG”, the binding signal is 8330 fluorescence intensity (a.u.). As for “TCGAGCCTACTAGTATAAATTGTACCTCGTTGTTATGAAGCGGAGTCACCTAGTGCAG”, the figure is 8250 fluorescence intensity (a.u.); as for “GCTGTTGGTTTGTGTGGCGAAGAGACGTCAACTTCGCCCTCGGAGTCACCTAGTGCAG”, 9840 fluorescence intensity (a.u.). With “ACCTGGGTATGTGTAGTGGTGTATCTTTGAATCAATGTGTCGGAGTCACCTAGTGCAG”, the binding signal was 9940 fluorescence intensity (a.u.). The figure for “CTGGGGTTAGTTCTATGGATATTTGCTACTCCTGTTGATACGGAGTCACCTAGTGCAG” is 8220 fluorescence intensity (a.u.). In the case of “GGACACGCTGAACCCCACTCCTTCTGTCCCCACATGTCATCGGAGTCACCTAGTGCAG”, the binding signal was 8110 fluorescence intensity (a.u.). “CCCTACCACCACCACCAGCACAGAATACTCGCATTAACATCGGAGTCACCTAGTGCAG”: the binding signal was 9210 fluorescence intensity (a.u.). The figure for “GGGTTGGTTCCTGCCTCTCGAGTCTCAGCAAGTGTGTCACCGGAGTCACCTAGTGCAG” is 11500 fluorescence intensity (a.u.); for “ACCATCGATTTAATTTGACTGTTGATCATAATAATATATCCGGAGTCACCTAGTGCAG” it is 8480 fluorescence intensity (a.u.).

For “GGCCCATATCTCCGACAGATAGCTAGATAACATCAAATTACGGAGTCACCTAGTGCAG”, the binding signal was 8050 fluorescence intensity (a.u.). Turning to “CATGACCTCAAGCATCTTTTGTCGATGGACATCCATCTCCCGGAGTCACCTAGTGCAG”, the binding signal was 8810 fluorescence intensity (a.u.).

As to “CTCTATTTCAGGGTATAAAGGGTTTGCGTGATGAAATTGCCGGAGTCACCTAGTGCAG”, the binding signal is 8190 fluorescence intensity (a.u.). As to “AGATTGTGGTGGGTGTTGATTGTGGTGATCTTGTCCCCTCCGGAGTCACCTAGTGCAG”, the binding signal is 13000 fluorescence intensity (a.u.). On to “TTAGGGTTGTAACCATGTAATTTTTCGCTACTATATATCACGGAGTCACCTAGTGCAG”, for which the binding signal was 8150 fluorescence intensity (a.u.). As to “GACTGACTGTTTGACTTATCTTTAGTCAAGGTGTTTTGCGCGGAGTCACCTAGTGCAG”, the binding signal was 8040 fluorescence intensity (a.u.).

(Values after PMC7819943, “Rice protein-binding microarrays: a tool to detect cis-acting elements near promoter regions in rice”.)
